PubChem BioAssay AID1224830 – NIAID | 2016
Test: 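Regulators of TLR4 signalling towards TNF-alpha in macrophage-like cells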 (primary screen). Cells: human THP-1 monocytic leukaemia cells, TNF dual-luciferase reporter clone, PMA-differentiated to macrophage-like cells. Knock-down reagent: siRNA pool against human genes, 50 nM. Duration: LPS for 4 h, given about 3 days after siRNA transfection. Conditions: bacterial LPS (TLR4 ligand), 10 ng/ml. Measurement: 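TNF firefly reporter luminescence divided by renilla, normalised to the plate median, then turned into a robust z-score for each replicate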. Scale: TNF reporter robust z-score: higher = stronger TNF reporter response to LPS. Active means: 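a well is active when its z-score exceeds 2.8 or falls below -1.5; control wells carry no call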.
This is a random part of about 18,000 deposited reagents. About 2,900 of all reagents (16%) were called active. 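Calls are made per well; low scores hint the gene aids the LPS response, high scores that it dampens it.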 Unmarked entries are inactive. Repeated entries: four replicate wells of each siRNA pool.

QSOX1 gave TNF reporter robust z-score -1.37. With knock-down of QSOX1, the screen gave TNF reporter robust z-score -0.33. QSOX1 showed TNF reporter robust z-score -0.98. Depletion of QSOX1 gave: TNF reporter robust z-score -0.51. RNASE2 showed TNF reporter robust z-score -0.69. With knock-down of RNASE2, the record shows TNF reporter robust z-score -0.37.

With knock-down of RNASE2 the results were TNF reporter robust z-score -1.08. With knock-down of RNASE2, the record shows TNF reporter robust z-score -0.93. TMC6 showed TNF reporter robust z-score -0.72. TMC6 gave TNF reporter robust z-score 2.29. TMC6 gave TNF reporter robust z-score -0.48. Silencing of TMC6 resulted in: TNF reporter robust z-score 2.45.

After knock-down of LARGE1, the record shows TNF reporter robust z-score 0.07. Knock-down of LARGE1 resulted in: TNF reporter robust z-score 0.53. Silencing of LARGE1 gave: TNF reporter robust z-score -0.06. After knock-down of LARGE1, the screen gave TNF reporter robust z-score 1.42. MAP3K6 gave TNF reporter robust z-score 0.22. MAP3K6 scored TNF reporter robust z-score 1.47.

MAP3K6 showed TNF reporter robust z-score -0.36. MAP3K6 showed TNF reporter robust z-score -0.4. Depletion of PLK2 gave: TNF reporter robust z-score 1.92. PLK2 showed TNF reporter robust z-score 1.59. With knock-down of PLK2 the results were TNF reporter robust z-score 1.75. Against PLK2 the deposit lists TNF reporter robust z-score 2.52.

4 of these entries, reformatted:
| Gene | TNF reporter robust z-score |
| --- | --- |
| LARGE1 | 1.42 |
| MAP3K6 | 0.22 |
| MAP3K6 | 1.47 |
| MAP3K6 | -0.36 |

More entries follow:
After knock-down of ACOT11, the record shows TNF reporter robust z-score 0.29. Depletion of ACOT11 came out at: TNF reporter robust z-score 0.32. With knock-down of ACOT11, the record shows TNF reporter robust z-score -0.85. For ACOT11 the deposit lists TNF reporter robust z-score -0.59. With knock-down of TANK, the screen gave TNF reporter robust z-score 1.03. Knock-down of TANK resulted in: TNF reporter robust z-score 0.77.

Depletion of TANK came out at: TNF reporter robust z-score 0.56. Against LOC728919 (retired record), the entry reads TNF reporter robust z-score 1.98. With knock-down of LOC728919 (retired record), the record shows TNF reporter robust z-score 1.85. After knock-down of LOC728919 (retired record), the screen gave TNF reporter robust z-score 3 (active). LOC728919 (retired record) showed TNF reporter robust z-score 1.21. For CFDP1, the entry reads TNF reporter robust z-score -1.36.

With knock-down of CFDP1, the screen gave TNF reporter robust z-score -1.12. Against CFDP1 the deposit lists TNF reporter robust z-score -1.49. Knock-down of CFDP1 resulted in: TNF reporter robust z-score -1.11. For MASP2, the values are TNF reporter robust z-score 0.55. MASP2 showed TNF reporter robust z-score 1.47. Against MASP2, the values are TNF reporter robust z-score 1.05.

After knock-down of MASP2 the results were TNF reporter robust z-score 0.54. NRIP3 gave TNF reporter robust z-score -0.7. For NRIP3 the deposit lists TNF reporter robust z-score -0.08. NRIP3 scored TNF reporter robust z-score 0.12. After knock-down of NRIP3, the record shows TNF reporter robust z-score 0.37. With knock-down of DEFB132 the results were TNF reporter robust z-score 0.76.

Silencing of DEFB132 gave: TNF reporter robust z-score -0.3. DEFB132 scored TNF reporter robust z-score -0.12. After knock-down of DEFB132, the record shows TNF reporter robust z-score 0.26. Knock-down of ACER3 came out at: TNF reporter robust z-score -0.11. Silencing of ACER3 resulted in: TNF reporter robust z-score 0.78. For ACER3, the values are TNF reporter robust z-score 0.26.

After knock-down of ACER3, the record shows TNF reporter robust z-score 0.8. Knock-down of FOXG1 gave: TNF reporter robust z-score -0.56. Knock-down of FOXG1 came out at: TNF reporter robust z-score -0.5. With knock-down of FOXG1, the screen gave TNF reporter robust z-score 1.02. FOXG1 showed TNF reporter robust z-score 0. Silencing of LPIN3 resulted in: TNF reporter robust z-score -0.23.

Depletion of LPIN3 resulted in: TNF reporter robust z-score 1.5. LPIN3 showed TNF reporter robust z-score 0.85. With knock-down of LPIN3, the screen gave TNF reporter robust z-score 0.42.
